Measurements reported in patent US7371720B2, “Cationic peptides of the phylloseptin family isolated from the skin secretion of Phyllomedusa hypochondrialis” (Empressa Brasileira de Pesquisa Agropecuaria - Embrapa, priority 2001, dated 2008).
Part of at least one peptide drawing is inferred or uncertain, most often the ends. Peptide text beside a SMILES is read from it.

Tested on: Pseudomonas aeruginosa ATTC 27853
Experiment: Peptide-induced membrane alterations by atomic force microscopy
Format: cell-based
Settings: at the MIC, incubated for 4 hour

CC[C@H](C)[C@H](NC(=O)[C@H](C)NC(=O)[C@H](CO)NC(=O)[C@@H](NC(=O)[C@H](C)NC(=O)[C@H](CC(N)=O)NC(=O)[C@@H](NC(=O)[C@H](C)NC(=O)[C@H](Cc1c[nH]cn1)NC(=O)[C@@H]1CCCN1C(=O)[C@@H](NC(=O)[C@H](CC(C)C)NC(=O)[C@H](CO)NC(=O)[C@H](CC(C)C)NC(=O)[C@@H](N)Cc1ccccc1)[C@@H](C)CC)[C@@H](C)CC)C(C)C)C(=O)N[C@@H](C)C(=O)N[C@@H](CCCCN)C(=O)N[C@@H](Cc1c[nH]cn1)C(=O)N[C@@H](CC(N)=O)C(=O)O [PS I, Phe Leu Ser Leu Ile Pro His Ala Ile Asn Ala Val Ser Ala Ile Ala Lys His Asn] (H-FLSLIPHAINAVSAIAKHN-OH)
effect of peptide on the cell membrane (AFM image): membrane alterations
